According to patent US5864012 (dated 1999):
[ ]: non-standard residue; d: D form. The star is where a group is joined. NMeV = CN[C@H](C(=O)O)C(C)C; Cbz = O=C(OCc1ccccc1)*; NHBn = c1ccc(CN*)cc1

Experiment: general procedure: solution-phase peptide synthesis; pivaloyl chloride / triethylamine (mixed anhydride)
Conditions: HCl

Substance	step yield (late stage modification step) [%]	step yield (coupling step) [%]	crude purity (method not given) (coupling step, HPLC percent area) [%]	purity (crude or final not stated) (late stage modification step, HPLC percent area) [%]
Cbz-VV[NMeV]P-OH	96.4			
Cbz-VV[NMeV]PP-NHBn		81.4	88.7	
Me2 Val--Val--MeVal--Pro--Pro--NHBzl×HCl		67		99.1
